From article doi:10.1101/2021.02.09.430424

Protein sequences, listed by entry. Tags and fused reporters are not part of them.
UniProt O89110: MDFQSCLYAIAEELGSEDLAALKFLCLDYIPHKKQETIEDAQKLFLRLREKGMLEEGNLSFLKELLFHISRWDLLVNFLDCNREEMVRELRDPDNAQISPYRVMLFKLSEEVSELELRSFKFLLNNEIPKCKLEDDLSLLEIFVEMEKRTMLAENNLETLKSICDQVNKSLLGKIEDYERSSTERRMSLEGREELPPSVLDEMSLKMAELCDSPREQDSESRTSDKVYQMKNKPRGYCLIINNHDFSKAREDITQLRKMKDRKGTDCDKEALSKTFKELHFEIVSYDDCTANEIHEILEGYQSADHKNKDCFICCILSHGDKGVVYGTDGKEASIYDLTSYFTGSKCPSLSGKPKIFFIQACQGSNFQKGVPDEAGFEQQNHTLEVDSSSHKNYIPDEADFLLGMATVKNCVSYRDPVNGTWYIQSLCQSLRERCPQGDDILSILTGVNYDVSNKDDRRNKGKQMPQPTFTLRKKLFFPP
UniProt Q9QZL0: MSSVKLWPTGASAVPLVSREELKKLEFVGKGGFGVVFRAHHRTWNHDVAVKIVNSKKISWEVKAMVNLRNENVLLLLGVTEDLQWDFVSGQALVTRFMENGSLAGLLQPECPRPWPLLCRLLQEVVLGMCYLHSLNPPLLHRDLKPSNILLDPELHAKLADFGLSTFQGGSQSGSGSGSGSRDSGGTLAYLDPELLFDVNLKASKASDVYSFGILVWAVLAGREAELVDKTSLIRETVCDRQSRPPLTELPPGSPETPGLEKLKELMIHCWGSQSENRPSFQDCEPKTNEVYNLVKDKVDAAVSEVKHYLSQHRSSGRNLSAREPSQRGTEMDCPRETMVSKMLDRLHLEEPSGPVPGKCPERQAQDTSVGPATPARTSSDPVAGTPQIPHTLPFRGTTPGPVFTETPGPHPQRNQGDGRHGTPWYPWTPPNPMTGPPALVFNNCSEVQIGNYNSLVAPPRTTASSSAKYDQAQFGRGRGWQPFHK

Biological target: C-terminally 3x FLAG tagged murine caspase-8 (Dox-inducible construct) (mouse) (UniProt O89110)
Assay: affinity purification with mass spectrometry

Molecule	binding
RIPK3 (endogenous, mouse) (from UniProt Q9QZL0 1-486)	binds
A20 (endogenous, mouse) (protein, UniProt Q60769 1-775) MAEQLLPQALYLSNMRKAVKIRERTPEDIFKPTNGIIYHFKTMHRYTLEMFRTCQFCPQFREIIHKALIDRSVQASLESQKKLNWCREVRKLVALKTNGDGNCLMHAACQYMWGVQDTDLVLRKALCSTLKETDTRNFKFRWQLESLKSQEFVETGLCYDTRNWNDEWDNLVKMASADTPAARSGLQYNSLEEIHIFVLSNILRRPIIVISDKMLRSLESGSNFAPLKVGGIYLPLHWPAQECYRYPIVLGYDSQHFVPLVTLKDSGPELRAVPLVNRDRGRFEDLKVHFLTDPENEMKEKLLKEYLIVMEIPVQGWDHGTTHLINAAKLDEANLPKEINLVDDYFELVQHEYKKWQENSDQARRAAHAQNPLEPSTPQLSLMDIKCETPNCPFFMSVNTQPLCHECSERRQKNQSKLPKLNSKLGPEGLPGVGLGSSNWSPEETAGGPHSAPPTAPSLFLFSETTAMKCRSPGCPFTLNVQHNGFCERCHARQINASHTADPGKCQACLQDVTRTFNGICSTCFKRTTAEPSSSLTSSIPASCHQRSKSDPSQLIQSLTPHSCHRTGNVSPSGCLSQAARTPGDRAGTSKCRKAGCMYFGTPENKGFCTLCFIEYRENKQSVTASEKAGSPAPRFQNNVPCLGRECGTLGSTMFEGYCQKCFIEAQNQRFHEARRTEEQLRSSQHRDMPRTTQVASRLKCARASCKNILACRSEELCMECQHLSQRVGSVAHRGEPTPEEPPKQRCRAPACDHFGNAKCNGYCNECYQFKQMYG	binds
TRADD (endogenous, mouse) (protein, UniProt Q3U0V2 1-310) MAAGQNGHEEWVGSAYLFLESAVDKVILSEAYTDPKKKVAIYKALQTALSESGDSSDVLQILKIHCSDPQLIVQLRFCGRVLCGRFLQAYREGALRTALQRCMAPALAQEALRLQLELRAGAEQLDSWLTDEERCLNYILAQKPDRLRDEELAELEDELCKLTCDCTGQGGAIQVASAGSKFPVSSPTEEKPLPAACQTFLFHGQLVVNRPLTLQDQQTFARSVGLKWRRVGRSLQRNCRALRDPALDSLAYEYERDGLYEQAFQLLRRFMQAEGRRATLQRLVEALEENELTSLAEDLLGQAEPDGGLA	binds
tankyrase-1 (endogenous, mouse) (enzyme, UniProt Q6PFX9 1-1320) MAASRRSQHHHHHHQQQLQPAPGASAPPPPPPPPLSPGLAPGPTPASPTAGGLAPFASPRHGLALPEGDGSRDPPDRPRSPDPVDGAVCTVAAPAAVPAASAAVGVAPTPAGGGGGGGNNSASSASSPTSSSSSSPSSPGSSLAESPEAAGVGSTATLGAGAAGLGPGVPAVSGALRELLEACRNGDVSRVKRLVDAANVNAKDMAGRKSSPLHFAAGFGRKDVVEHLLQMGANVHARDDGGLIPLHNACSFGHAEVVSLLLCQGADPNARDNWNYTPLHEAAIKGKIDVCIVLLQHGADPNIRNTDGKSALDLADPSAKAVLTGEYKKDELLEAARSGNEEKLMALLTPLNVNCHASDGRKSTPLHLAAGYNRVRIVQLLLQHGADVHAKDKGGLVPLHNACSYGHYEVTELLLKHGACVNAMDLWQFTPLHEAASKNRVEVCSLLLSHGADPTLVNCHGKSAVDMAPTPELRERLTYEFKGHSLLQAAREADLAKVKKTLALEIINFKQPQSHETALHCAVASLHPKRKQVAELLLRKGANVNEKNKDFMTPLHVAAERAHNDVMEVLHKHGAKMNALDSLGQTALHRAALAGHLQTCRLLLSYGSDPSIISLQGFTAAQMGNEAVQQILSESTPMRTSDVDYRLLEASKAGDLETVKQLCSPQNVNCRDLEGRHSTPLHFAAGYNRVSVVEYLLHHGADVHAKDKGGLVPLHNACSYGHYEVAELLVRHGASVNVADLWKFTPLHEAAAKGKYEICKLLLKHGADPTKKNRDGNTPLDLVKEGDTDIQDLLRGDAALLDAAKKGCLARVQKLCTPENINCRDTQGRNSTPLHLAAGYNNLEVAEYLLEHGADVNAQDKGGLIPLHNAASYGHVDIAALLIKYNTCVNATDKWAFTPLHEAAQKGRTQLCALLLAHGADPTMKNQEGQTPLDLATADDIRALLIDAMPPEALPTCFKPQATVVSASLISPASTPSCLSAASSIDNLTGPLTDLAVGGASNAGDGAAGAERKEGEVAGLDMNISQFLKSLGLEHLRDIFETEQITLDVLADMGHEELKEIGINAYGHRHKLIKGVERLLGGQQGTNPYLTFHCVNQGTILLDLAPEDKEYQSVEEEMQSTIREHRDGGNAGGIFNRYNVIRIQKVVNKKLRERFCHRQKEVSEENHNHHNERMLFHGSPFINAIIHKGFDERHAYIGGMFGAGIYFAENSSKSNQYVYGIGGGTGCPTHKDRSCYICHRQMLFCRVTLGKSFLQFSTMKMAHAPPGHHSVIGRPSVNGLAYAEYVIYRGEQAYPEYLITYQIMKPEAPSQTATAAEQKT	binds

These are yes or no findings as the source states them, for the method shown. In cells and extracts the contact can be indirect. These calls come from enrichment with a bait or labelling near it, and not all partners need be listed.
